According to the supplement of paper PMC12067093, “Discovery and optimisation of a covalent ligand for TRIM25 and its application to targeted protein ubiquitination” (Chemical Science, 2025):
Some of the results follow.

Sequences of proteins named here, by UniProt entry; tags and fusion partners are left off. A change or cut given only in a name is not applied to a line headed by its entry.
UniProt P60981: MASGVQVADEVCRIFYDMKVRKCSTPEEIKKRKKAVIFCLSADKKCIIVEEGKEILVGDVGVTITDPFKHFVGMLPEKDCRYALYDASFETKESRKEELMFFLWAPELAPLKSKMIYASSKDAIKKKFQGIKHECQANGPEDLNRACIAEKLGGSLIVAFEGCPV
UniProt Q96G46: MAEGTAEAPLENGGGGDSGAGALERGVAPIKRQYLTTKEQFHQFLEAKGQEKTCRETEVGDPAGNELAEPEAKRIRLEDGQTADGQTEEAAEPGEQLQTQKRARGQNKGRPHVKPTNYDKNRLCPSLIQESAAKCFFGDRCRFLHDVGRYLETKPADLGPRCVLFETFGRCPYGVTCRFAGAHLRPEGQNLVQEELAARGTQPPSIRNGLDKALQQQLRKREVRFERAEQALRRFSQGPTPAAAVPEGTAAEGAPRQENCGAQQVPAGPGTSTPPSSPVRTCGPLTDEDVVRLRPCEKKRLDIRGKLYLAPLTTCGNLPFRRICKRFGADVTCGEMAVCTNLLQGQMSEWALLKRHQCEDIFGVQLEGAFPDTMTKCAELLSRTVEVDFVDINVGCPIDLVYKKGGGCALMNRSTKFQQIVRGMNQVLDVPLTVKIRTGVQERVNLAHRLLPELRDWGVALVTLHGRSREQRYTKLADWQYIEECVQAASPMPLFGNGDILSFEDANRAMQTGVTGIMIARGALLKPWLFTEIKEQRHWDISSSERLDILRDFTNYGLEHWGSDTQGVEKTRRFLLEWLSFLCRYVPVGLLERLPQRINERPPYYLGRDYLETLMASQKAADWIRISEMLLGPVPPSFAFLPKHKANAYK
UniProt Q9BVJ7: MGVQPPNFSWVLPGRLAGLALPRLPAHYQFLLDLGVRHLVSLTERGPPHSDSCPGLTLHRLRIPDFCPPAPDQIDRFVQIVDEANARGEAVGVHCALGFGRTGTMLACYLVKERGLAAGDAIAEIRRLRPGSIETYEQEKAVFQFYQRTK
UniProt Q99848: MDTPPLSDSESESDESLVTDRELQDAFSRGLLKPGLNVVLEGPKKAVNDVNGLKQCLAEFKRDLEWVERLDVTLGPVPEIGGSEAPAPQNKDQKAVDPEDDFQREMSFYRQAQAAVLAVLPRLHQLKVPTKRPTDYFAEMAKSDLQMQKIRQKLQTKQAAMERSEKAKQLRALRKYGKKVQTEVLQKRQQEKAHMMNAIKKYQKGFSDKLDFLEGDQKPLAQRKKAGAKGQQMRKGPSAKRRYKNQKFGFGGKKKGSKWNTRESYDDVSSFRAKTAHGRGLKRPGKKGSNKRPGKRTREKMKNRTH
UniProt Q7L591: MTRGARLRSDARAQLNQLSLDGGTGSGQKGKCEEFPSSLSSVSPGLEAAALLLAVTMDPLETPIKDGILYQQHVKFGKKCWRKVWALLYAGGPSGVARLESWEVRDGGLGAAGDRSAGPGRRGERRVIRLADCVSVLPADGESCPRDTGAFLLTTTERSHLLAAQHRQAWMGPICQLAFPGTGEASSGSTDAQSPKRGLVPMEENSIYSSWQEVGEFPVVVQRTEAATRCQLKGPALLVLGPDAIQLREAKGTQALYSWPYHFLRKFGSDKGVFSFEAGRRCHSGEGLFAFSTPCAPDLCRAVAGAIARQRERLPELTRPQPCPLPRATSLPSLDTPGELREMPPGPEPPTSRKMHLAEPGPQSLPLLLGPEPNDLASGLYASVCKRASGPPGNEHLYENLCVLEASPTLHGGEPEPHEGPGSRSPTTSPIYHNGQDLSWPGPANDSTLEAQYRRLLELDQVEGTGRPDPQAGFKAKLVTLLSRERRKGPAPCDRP
UniProt P23919: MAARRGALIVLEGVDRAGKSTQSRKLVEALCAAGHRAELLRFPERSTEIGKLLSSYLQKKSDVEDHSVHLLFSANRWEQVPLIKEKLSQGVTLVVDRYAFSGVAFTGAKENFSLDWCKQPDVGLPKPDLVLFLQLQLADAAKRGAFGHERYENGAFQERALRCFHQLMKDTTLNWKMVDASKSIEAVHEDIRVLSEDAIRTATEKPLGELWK
UniProt Q96HP0: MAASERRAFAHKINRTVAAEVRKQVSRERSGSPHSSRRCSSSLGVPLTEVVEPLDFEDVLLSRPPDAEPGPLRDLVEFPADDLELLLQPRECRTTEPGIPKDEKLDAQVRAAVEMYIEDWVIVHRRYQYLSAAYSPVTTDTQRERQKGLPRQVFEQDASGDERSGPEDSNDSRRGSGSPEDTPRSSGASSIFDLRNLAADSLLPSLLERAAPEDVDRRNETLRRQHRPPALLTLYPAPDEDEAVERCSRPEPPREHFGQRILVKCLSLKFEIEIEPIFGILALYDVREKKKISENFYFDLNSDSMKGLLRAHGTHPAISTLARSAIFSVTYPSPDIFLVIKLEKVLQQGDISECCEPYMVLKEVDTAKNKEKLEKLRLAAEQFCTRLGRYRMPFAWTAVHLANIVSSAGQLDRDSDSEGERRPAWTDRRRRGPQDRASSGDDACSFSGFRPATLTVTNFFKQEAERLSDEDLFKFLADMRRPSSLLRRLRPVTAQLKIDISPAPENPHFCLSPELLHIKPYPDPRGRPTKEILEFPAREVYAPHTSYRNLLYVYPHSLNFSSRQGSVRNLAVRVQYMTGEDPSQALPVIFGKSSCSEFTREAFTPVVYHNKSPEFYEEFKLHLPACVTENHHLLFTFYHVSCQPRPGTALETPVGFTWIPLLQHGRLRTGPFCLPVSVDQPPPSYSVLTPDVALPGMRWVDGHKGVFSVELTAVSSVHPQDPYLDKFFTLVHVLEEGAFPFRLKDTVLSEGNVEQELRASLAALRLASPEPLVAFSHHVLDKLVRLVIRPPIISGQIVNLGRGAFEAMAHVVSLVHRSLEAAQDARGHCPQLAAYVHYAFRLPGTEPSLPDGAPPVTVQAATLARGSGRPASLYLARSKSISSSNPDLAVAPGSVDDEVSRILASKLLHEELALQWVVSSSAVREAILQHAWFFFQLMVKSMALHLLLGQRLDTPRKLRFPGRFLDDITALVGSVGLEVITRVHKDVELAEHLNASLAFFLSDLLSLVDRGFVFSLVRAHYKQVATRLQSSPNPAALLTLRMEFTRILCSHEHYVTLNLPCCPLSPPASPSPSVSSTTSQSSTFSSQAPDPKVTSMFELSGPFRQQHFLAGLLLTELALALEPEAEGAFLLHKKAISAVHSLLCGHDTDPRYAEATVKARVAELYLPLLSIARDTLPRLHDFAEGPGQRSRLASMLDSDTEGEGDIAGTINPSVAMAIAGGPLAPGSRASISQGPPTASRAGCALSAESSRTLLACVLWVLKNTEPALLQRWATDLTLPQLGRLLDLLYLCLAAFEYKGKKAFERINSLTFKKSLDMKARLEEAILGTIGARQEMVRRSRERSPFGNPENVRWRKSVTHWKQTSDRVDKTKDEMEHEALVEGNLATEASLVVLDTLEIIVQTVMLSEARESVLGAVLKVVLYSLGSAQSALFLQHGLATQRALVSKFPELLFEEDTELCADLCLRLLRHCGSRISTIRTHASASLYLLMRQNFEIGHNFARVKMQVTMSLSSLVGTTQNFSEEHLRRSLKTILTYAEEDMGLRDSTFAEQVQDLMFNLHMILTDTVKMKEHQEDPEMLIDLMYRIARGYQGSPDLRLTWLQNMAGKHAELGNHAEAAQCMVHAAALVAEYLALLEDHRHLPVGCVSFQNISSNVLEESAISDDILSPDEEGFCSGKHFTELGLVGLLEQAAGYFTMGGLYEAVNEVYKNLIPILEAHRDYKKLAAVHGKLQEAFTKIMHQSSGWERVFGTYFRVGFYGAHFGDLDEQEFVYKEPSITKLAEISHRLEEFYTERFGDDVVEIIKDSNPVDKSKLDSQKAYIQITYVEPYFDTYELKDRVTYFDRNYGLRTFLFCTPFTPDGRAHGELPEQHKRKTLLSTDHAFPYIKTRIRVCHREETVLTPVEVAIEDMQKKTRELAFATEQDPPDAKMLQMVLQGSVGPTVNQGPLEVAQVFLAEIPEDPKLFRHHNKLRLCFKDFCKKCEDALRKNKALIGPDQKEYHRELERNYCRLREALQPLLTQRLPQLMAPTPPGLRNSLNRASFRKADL
UniProt Q92785, whole entry, looked up: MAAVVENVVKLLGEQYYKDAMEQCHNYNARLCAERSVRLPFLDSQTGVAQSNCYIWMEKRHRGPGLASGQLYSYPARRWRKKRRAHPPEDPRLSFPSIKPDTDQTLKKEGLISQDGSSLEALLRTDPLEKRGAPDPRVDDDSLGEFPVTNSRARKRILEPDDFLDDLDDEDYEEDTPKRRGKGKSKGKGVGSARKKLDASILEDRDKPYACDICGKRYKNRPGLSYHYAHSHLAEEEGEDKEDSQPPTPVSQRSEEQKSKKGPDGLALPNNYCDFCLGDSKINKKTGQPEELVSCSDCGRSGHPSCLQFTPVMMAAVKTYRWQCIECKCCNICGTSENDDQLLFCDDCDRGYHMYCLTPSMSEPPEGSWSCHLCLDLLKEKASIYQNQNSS
UniProt Q6UX65: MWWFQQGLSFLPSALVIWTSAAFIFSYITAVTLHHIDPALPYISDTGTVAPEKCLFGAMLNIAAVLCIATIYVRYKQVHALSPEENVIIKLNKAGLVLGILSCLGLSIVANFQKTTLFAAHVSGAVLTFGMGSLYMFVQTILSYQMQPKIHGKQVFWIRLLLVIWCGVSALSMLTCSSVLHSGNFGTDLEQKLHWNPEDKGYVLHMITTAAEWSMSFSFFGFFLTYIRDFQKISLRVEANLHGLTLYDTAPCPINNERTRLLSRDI
UniProt P26358: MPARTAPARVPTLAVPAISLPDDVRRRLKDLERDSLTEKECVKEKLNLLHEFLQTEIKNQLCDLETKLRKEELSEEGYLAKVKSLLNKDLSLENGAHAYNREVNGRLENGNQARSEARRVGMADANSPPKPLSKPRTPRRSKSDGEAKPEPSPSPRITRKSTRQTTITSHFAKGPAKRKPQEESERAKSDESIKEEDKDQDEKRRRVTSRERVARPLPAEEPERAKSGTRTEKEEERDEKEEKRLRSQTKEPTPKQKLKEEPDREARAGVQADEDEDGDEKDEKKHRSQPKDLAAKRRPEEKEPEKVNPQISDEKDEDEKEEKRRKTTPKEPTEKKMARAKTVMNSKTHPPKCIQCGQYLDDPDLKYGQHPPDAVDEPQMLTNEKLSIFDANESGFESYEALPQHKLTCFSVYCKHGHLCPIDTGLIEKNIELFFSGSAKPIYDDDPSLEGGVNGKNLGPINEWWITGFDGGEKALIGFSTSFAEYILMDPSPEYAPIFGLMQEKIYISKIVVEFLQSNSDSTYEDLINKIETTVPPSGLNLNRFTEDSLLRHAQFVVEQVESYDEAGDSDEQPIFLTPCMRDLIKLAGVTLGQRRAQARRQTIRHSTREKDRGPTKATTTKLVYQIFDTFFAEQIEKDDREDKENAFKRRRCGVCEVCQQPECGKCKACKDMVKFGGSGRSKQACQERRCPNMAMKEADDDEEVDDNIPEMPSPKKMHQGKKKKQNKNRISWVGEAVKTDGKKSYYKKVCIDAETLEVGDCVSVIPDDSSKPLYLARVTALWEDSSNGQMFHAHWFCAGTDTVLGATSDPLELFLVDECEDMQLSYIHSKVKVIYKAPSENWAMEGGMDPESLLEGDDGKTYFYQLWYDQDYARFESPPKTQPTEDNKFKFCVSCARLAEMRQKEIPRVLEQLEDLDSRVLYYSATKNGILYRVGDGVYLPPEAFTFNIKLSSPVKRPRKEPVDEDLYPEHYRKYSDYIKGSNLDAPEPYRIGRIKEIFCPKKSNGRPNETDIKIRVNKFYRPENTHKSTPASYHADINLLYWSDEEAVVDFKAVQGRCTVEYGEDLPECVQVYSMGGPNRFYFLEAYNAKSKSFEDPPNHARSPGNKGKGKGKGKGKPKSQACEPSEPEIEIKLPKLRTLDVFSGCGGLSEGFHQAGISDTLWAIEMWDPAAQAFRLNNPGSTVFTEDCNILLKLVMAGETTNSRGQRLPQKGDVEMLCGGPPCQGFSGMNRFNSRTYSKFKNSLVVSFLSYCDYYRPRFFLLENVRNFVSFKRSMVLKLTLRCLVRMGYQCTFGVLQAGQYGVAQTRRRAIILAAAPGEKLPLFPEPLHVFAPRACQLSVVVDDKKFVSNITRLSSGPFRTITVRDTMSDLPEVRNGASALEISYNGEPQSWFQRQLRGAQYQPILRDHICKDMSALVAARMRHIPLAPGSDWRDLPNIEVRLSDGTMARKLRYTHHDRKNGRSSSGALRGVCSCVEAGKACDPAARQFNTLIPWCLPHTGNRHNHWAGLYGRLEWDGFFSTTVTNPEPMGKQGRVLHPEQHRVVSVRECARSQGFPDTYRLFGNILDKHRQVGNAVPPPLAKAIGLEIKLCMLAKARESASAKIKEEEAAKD
UniProt Q9H2P9: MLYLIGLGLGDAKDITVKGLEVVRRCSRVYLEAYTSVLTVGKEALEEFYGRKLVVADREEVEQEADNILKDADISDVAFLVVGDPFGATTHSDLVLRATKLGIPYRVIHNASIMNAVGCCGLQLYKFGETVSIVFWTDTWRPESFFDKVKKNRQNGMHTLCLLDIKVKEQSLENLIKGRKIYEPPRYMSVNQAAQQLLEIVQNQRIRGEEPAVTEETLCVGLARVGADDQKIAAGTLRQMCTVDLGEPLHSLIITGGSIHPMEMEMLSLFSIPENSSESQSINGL

Compound: Cc1cc(ccc1-c1ccccc1)C(=O)N1CCCN(CC1)C(=O)CCl [compound 10]
Experiment: probe-labelled cysteine peptide fold change vs DMSO (competition) (log2 fold change); higher = less target engagement (more negative = stronger competition)
Conditions: 10 µM; THP-1; incubation time: 4 h
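Further: competitive profiling in live THP-1 cells: cysteine peptides tagged with an iodoacetamide desthiobiotin (IA-DTB) probe, intensity after compound treatment relative to DMSO-treated cells.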

Target	probe-labelled cysteine peptide fold change
DSTN_P60981_23_CSTPEEIK (UniProt P60981)	-0.161
ECD_O95905_267_CLYAQLVQQR (UniProt O95905)	-0.209
DUS3L_Q96G46_408_KGGGCALMNR (UniProt Q96G46)	-0.0419
DUSP11_O75319_117_KLAPEECFSPLDLFNK (UniProt O75319)	0.111
DUT_P33316_222_IAQLICER (UniProt P33316)	0.187
DPP9_Q86TI2_259_FTGYWWCPTASWEGSEGLK (UniProt Q86TI2)	0.158
DPYD_Q12882_671_SEDSGADALELNLSCPHGMGER (UniProt Q12882)	-0.0548
DSCR3_O14972_187_GHLNSTNCVITQPLTGELVVESSEAAIR (UniProt O14972)	0.382
DUSP23_Q9BVJ7_95_GEAVGVHCALGFGR (UniProt Q9BVJ7)	0.314
DYRK1A_Q13627_551_HSGGHFTAAVQAMDCETHSPQVR (UniProt Q13627)	-0.0245
EBNA1BP2_Q99848_56_QCLAEFKR (UniProt Q99848)	0.143
DPP7_Q9UHL4_338_LYHSCADPTGCGTGPDAR (UniProt Q9UHL4)	0.0677
EAPP_Q56P03_210_AMFVMNCSINK (UniProt Q56P03)	0.184
DTX3L_Q8TDB6_599_AMSYKPICPTCQTSYGIQK (UniProt Q8TDB6)	0.0315
DOK3_Q7L591_282+295_CHSGEGLFAFSTPCAPDLCR (UniProt Q7L591)	-0.113
DTYMK_P23919_31_LVEALCAAGHR (UniProt P23919)	0.0566
DXO_O77932_108_DEEVQERLDHLLCWLLEHR (UniProt O77932)	0.222
DTYMK_P23919_31_KLVEALCAAGHR (UniProt P23919)	-0.0021
ECHDC1_Q9NTX5_133_SLGTPEDGMAVCMFMQNTLTR (UniProt Q9NTX5)	0.298
DPCD_Q9BVM2_164_FSIPDLDRHQLPLDDALLSFAHANCTLIISYQK (UniProt Q9BVM2)	0.107

Target	probe-labelled cysteine peptide fold change
DUSP28_Q4G0W2_86_VPVFDDPAEDLLAHLEPTCAAMEAAVR (UniProt Q4G0W2)	-0.0489
DOCK6_Q96HP0_595_SSCSEFTR (UniProt Q96HP0)	-0.0366
DPF2_Q92785_295_TGQPEELVSCSDCGR (UniProt Q92785)	0.289
DPP3_Q9NY33_176_EGITTYFSGNCTMEDAK (UniProt Q9NY33)	0.127
DRAM2_Q6UX65_252_VEANLHGLTLYDTAPCPINNER (UniProt Q6UX65)	-0.0568
DUSP12_Q9UNI6_23_VSCAGQMLEVQPGLYFGGAAAVAEPDHLR (UniProt Q9UNI6)	-0.456
DPH7_Q9BTV6_33_HLLACGTYQLR (UniProt Q9BTV6)	0.0319
DNMT1_P26358_762_VCIDAETLEVGDCVSVIPDDSSK (UniProt P26358)	-0.0351
DSTN_P60981_46_CIIVEEGK (UniProt P60981)	0.0252
ECHS1_P30084_111_EMQNLSFQDCYSSK (UniProt P30084)	-0.15
DSTN_P60981_39_AVIFCLSADK (UniProt P60981)	-0.093
DYNC1H1_Q14204_3147_EAIVNSCVFVHQTLHQANAR (UniProt Q14204)	0.0436
DRG1_Q9Y295_195_GGINLTATCPQSELDAETVK (UniProt Q9Y295)	0.231
DOT1L_Q8TEK3_1397_EAGEGGLPLCGPTDK (UniProt Q8TEK3)	-0.195
DUS3L_Q96G46_358_RHQCEDIFGVQLEGAFPDTMTK (UniProt Q96G46)	-0.0881
DPYSL2_Q16555_504_GLYDGPVCEVSVTPK (UniProt Q16555)	-0.0101
DPH5_Q9H2P9_120_VIHNASIMNAVGCCGLQLYK (UniProt Q9H2P9)	0.0911
DYNC1I2_Q13409_331_KTTPEYVFHCQSAVMSATFAK (UniProt Q13409)	0.023
DUS3L_Q96G46_408_GGGCALMNR (UniProt Q96G46)	-0.166
